Data on one molecule can be found in paper PMC10243088.

For the assay, the target named is T1, hephaestin (human (endogenous in iPSC-derived ECs and HEK 293)) (UniProt Q9BQS7).
T1 sequence: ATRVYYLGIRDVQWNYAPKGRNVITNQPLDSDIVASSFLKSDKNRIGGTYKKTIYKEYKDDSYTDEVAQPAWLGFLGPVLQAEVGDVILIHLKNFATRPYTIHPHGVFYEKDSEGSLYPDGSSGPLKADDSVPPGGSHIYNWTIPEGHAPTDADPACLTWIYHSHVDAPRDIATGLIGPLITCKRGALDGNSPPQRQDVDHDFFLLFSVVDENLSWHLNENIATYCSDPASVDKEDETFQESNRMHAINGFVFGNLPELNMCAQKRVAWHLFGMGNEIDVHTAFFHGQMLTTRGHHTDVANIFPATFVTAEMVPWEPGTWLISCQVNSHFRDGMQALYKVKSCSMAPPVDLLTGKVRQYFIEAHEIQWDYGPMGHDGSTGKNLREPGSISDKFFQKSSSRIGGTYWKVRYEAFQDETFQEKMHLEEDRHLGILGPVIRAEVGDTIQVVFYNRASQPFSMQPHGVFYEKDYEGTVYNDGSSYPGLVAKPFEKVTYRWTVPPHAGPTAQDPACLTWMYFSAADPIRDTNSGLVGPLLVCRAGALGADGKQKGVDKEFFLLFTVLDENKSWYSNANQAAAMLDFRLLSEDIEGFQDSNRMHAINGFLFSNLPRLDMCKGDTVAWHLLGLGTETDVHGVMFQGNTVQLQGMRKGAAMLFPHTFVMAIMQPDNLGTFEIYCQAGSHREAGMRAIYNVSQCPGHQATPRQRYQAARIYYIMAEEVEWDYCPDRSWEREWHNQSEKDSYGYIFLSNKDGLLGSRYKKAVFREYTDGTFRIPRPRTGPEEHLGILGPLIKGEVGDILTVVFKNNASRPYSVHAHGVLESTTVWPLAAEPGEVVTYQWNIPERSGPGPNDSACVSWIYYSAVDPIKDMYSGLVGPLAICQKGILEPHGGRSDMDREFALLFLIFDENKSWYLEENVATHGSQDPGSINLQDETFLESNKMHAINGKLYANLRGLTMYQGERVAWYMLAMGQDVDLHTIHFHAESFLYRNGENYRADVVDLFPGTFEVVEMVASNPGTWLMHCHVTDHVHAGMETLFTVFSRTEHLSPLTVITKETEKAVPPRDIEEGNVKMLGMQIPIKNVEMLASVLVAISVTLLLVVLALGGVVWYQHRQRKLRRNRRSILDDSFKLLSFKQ
Kind of assay: co-IP; iPSC-derived ECs lysate, Protein G magnetic beads with anti-Heph antibody; endogenous Fpn and Heph.

These are yes or no findings as the source states them, for the method shown. Binding seen in cells or lysates may run through a third protein. Some entries that bind do so weakly or less than the wild type.

B1: ferroportin (protein, UniProt Q9NP59 1-571)
chain: MTRAGDHNRQRGCCGSLADYLTSAKFLLYLGHSLSTWGDRMWHFAVSVFLVELYGNSLLLTAVYGLVVAGSVLVLGAIIGDWVDKNARLKVAQTSLVVQNVSVILCGIILMMVFLHKHELLTMYHGWVLTSCYILIITIANIANLASTATAITIQRDWIVVVAGEDRSKLANMNATIRRIDQLTNILAPMAVGQIMTFGSPVIGCGFISGWNLVSMCVEYVLLWKVYQKTPALAVKAGLKEEETELKQLNLHKDTEPKPLEGTHLMGVKDSNIHELEHEQEPTCASQMAEPFRTFRDGWVSYYNQPVFLAGMGLAFLYMTVLGFDCITTGYAYTQGLSGSILSILMGASAITGIMGTVAFTWLRRKCGLVRTGLISGLAQLSCLILCVISVFMPGSPLDLSVSPFEDIRSRFIQGESITPTKIPEITTEIYMSNGSNSANIVPETSPESVPIISVSLLFAGVIAARIGLWSFDLTVTQLLQENVIESERGIINGVQNSMNYLLDLLHFIMVILAPNPEAFGLLVLISVSFVAMGHIMYFRFAQNTLGNKLFACGPDAKEVRKENQANTSVV
Regarding B1, the binding result was “binds”.
